According to US20230136569A1, “USE OF NMN TO REDUCE IMMUNODEPRESSION AND IMMUNOSENESCENCE” (NUVAMID SA, priority 2020, published 2023):

Test: Weight gain and water consumption of mice given the compounds in drinking water
Assay type: in vivo
Conditions: old mice, 500 mg/kg p.o. in drinking water; compared with the mice of 11 weeks (FIG. 1B)
Description: The administering of β-NMN at 500 mg/kg, of α-NMN at 500 mg/kg and of the vehicle (water) was obtained via oral route (p.o) in the drinking water to young and old mice. The solutions were prepared by dissolving the powder of β-NMN or α-NMN in the vehicle (water). The solution was used at ambient temperature for no more than 2 days and was freshly prepared for each new administration. The mice were weighed each week to adapt the dose of the compound to be administered. Throughout the entire phase, a standard food diet and tap water were provided ad libitum. The study comprised 4 groups each having 6 mice: • Group 1: young mice (aged 10 weeks)+drinking water (vehicle) • Groupe 2: old mice (aged 15 months)+drinking water (vehicle) • Group 3: old mice (aged 15 months)+compound I-B (alpha-NMN) in the drinking water • Group 4: old mice (aged 15 months)+compound I-A (beta-NMN) in the drinking water The water consumption of the mice was assessed per cage every other day. The mice were weighed every week. The mice in Group 3 were sacrificed after 4 weeks for organ collection and characterisation of T cell function. The mice in Group 4 were sacrificed after 6 weeks for organ collection and characterisation of T cell function. On the day of sacrifice, the mice were anaesthetised with Vetoflurane (isoflurane) and blood samples were taken from the retroorbital sinus. […]

Row | Compound | water consumption
1 | NC(=O)c1ccc[n+]([C@@H]2O[C@H](COP(=O)([O-])O)[C@@H](O)[C@H]2O)c1 (stereo in doubt) [I-A, nicotinamide mononucleotide] | did not have any effect on water consumption
2 | NC(=O)c1ccc[n+]([C@H]2O[C@H](COP(=O)([O-])O)[C@@H](O)[C@H]2O)c1 (stereo in doubt) [I-B, alpha nicotinamide mononucleotide] | did not have any effect on water consumption
